In paper PMC6927325:

Key:
Assay in all cases: peptide or protein array; peptides synthesized on a cellulose membrane, blotted with GST-PTBi; anti-GST Far-Western to detect the bound protein; both purified
[1] = biological target: T1, ALK peptide M1099…1109 on a cellulose membrane
T1 sequence (peptide): MTDYNPNYCFA

[2] = biological target: T2, ALK peptide G1473…1483 on a cellulose membrane
T2 sequence (peptide): GGHVNMAFSQS

[3] = biological target: T3, ALK peptide F1577…1587 on a cellulose membrane
T3 sequence (peptide): FPCGNVNYGYQ

[4] = biological target: T4, ALK peptide P1499…1509 on a cellulose membrane
T4 sequence (peptide): PTSLWNPTYGS

With “GST-fused NUMB PTB domain with the exon 3 insert (11 aa) (domain or fragment)” the binding [1] was “no binding”, the binding [2] was “binds” and the binding [3] was “binds”. For the same substance, the binding [4] was “no binding”.

No constants are given. Whether binding was seen depends on the method and setting. For some of these results: A result given as binding can be weak or reduced; the word gives no strength.
